PubChem BioAssay AID504786, Drosophila RNAi Screening Center, 2011
The deposit covers about 21,000 reagents; below is an unselected part of those that have a named target and a result. 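Primary screen; positive scores mean lost reporter signal, so the sign may be inverted from the usual convention.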 A plus sign joins genes that one reagent is predicted to hit. Further read-outs or replicates are left out here.

Test: 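Knock-downs reducing HIF reporter induction by the iron chelator DFO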 (primary screen)
Cell system: Drosophila S2 cells with a stable HIF luciferase reporter
Reagent: long dsRNA against Drosophila genes, about 0.2 µg dsRNA per well of a 384-well plate
Duration: three days of knock-down, then 20 h of DFO before reading
Conditions: desferrioxamine (DFO) at 100 µM, an iron chelator that mimics hypoxia, for 20 h
Measured: 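Firefly luciferase driven by the mouse ldh-a hypoxia-response element, measured after 20 h of 100 µM DFO; z-scores per plate, higher means more signal lost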
Scale: z-score: higher = stronger loss of HIF reporter signal

z-score, replicate 1, by predicted target and reagent
CG10433: DRSC04068 -0.3
ssp3: DRSC02669 -0.2; DRSC02670 -0.2
Golgin245: DRSC04374 -0.2
CG42741: DRSC04593 -0.3
CG42365: DRSC04266 -0.1
Ucp4A: DRSC19996 -0.3
CG42324: DRSC08431 -0.4; DRSC08432 -0.3
Ctr9: DRSC08562 -0.2
CkIIbeta2: DRSC07361 -0.2
E(spl)m6-BFM: DRSC16993 -0.5
Nup44A: DRSC07248 0.6
Ktch: DRSC15094 -0.4
CG32249: DRSC08101 -0.3; DRSC08177 -0.4
CG5641: DRSC15852 -0.3
eIF3d2: DRSC15651 -0.1
Spn28Da: DRSC02162 -0.2
TpnC4: DRSC04856 -0.2
CG13048: DRSC09929 -0.2
CG12576: DRSC20621 -0.6
PGRP-SC1b: DRSC07215 -0.3
UQCR-C2: DRSC10405 0.8
CG18538: DRSC06765 -0.3
bnk: DRSC16912 -0.3

Reformatted: results already given.
Golgin245 [DRSC04374]
- z-score, replicate 1: -0.2

CG42741 [DRSC04593]
- z-score, replicate 1: -0.3

CG42365 [DRSC04266]
- z-score, replicate 1: -0.1

Ucp4A [DRSC19996]
- z-score, replicate 1: -0.3

CG42324 [DRSC08431]
- z-score, replicate 1: -0.4

CG42324 [DRSC08432]
- z-score, replicate 1: -0.3

Further records follow:
z-score, replicate 1, by predicted target and reagent
Dbp73D: DRSC11142 -0.1
mei-9: DRSC18792 -0.2
Ada1-1 + Ada1-2: DRSC01220 0.3; DRSC01222 0.2
CG11089 + CG31381: DRSC13690 -0.3; DRSC14290 -0.2
ND-49L: DRSC14437 0
CG10561: DRSC02068 -0.2
Idgf5: DRSC06919 0
CG32022: DRSC09678 -0.2
yellow-f: DRSC15348 0
PICK1: DRSC02936 -0.4
Vha26: DRSC12371 -0.2
Ama: DRSC12489 -0.5
Syx16: DRSC20507 -0.3
CG7747: DRSC07038 -0.2
CG13380 + CG4174: DRSC09988 -0.3; DRSC10406 -0.3
Hmgcr: DRSC16704 1.5
CG11694: DRSC14354 -0.2
CG12279: DRSC14495 -0.2
CG11807: DRSC06087 0
CG34323: DRSC18916 -0.1
CG4646: DRSC06876 -0.2
glu: DRSC03539 -0.4
angel: DRSC04670 -0.3
CG9184: DRSC08636 -0.3
CG13059: DRSC09942 -0.2
Peritrophin-15a: DRSC02636 -0.2
Ppi1: DRSC15421 -0.2
